Assay results from publication PMC10163288.
This is one part of the list.

B1: il10ra_site1_sap_20_mot_HHH_b1_01167_000000070_0001_1_20_H_._HHH_b1_00963_0001_0000100014_0000002_0_0001 (protein)
chain: DEEEAISLAIRHQAEWAGVPSVEVSFSNGELTVTFEGDDRSVRQAILAARAMADLYRLTLTYSEE
B2: il10ra_site1_sap_16_mot_HHH_b2_05540_000000178_0001_1_18_H_._HHH_b1_01113_af2_0001_0000100001_0000001_0_0001 (protein)
chain: SSSSSSSELEELLEEIEEALERGDPEAAARLSVEAVELAAERDDKEVIRELQRLNREIFSSSSSS
B3: il10ra_site1_normal_mot_HHH_b2_00441_000000147_0001_1_18_H_._HHH_b1_03644_0001_0000100004_0000001_0 (protein)
chain: SSSSDVEEYVRLSLRFARWLFEENDEEALRRIVKAIEDLARRENSEEVQEILKEVEELLKSSSSS
B4: il10ra_site1_sap_17_mot_HHH_b2_00066_000000124_0001_1_17_H_._HHH_b1_02981_0001_0000400024_0000001_0_0001 (protein)
chain: SSSSSSEEYHEEVRELLEEAEHIEDPEERMRVLMEALKLAYHGKDPEALQLVWEVVRRLSSSSSS
B5: il10ra_site1_sap_20_mot_HHH_b2_02463_af2_000000222_0001_1_19_H_._HHH_b1_03757_af2_0001_0000200004_0000001_0_0001 (protein)
chain: SSSSDESEEVLEEAEELLKEAQERGDAQLRYRILKEAIELLLRLGDPQAAQRLAEFFIRLSSSSS
B6: il10ra_site1_sap_15_mot_8756ee2cf497b5429c717dfc0c0bcfd6_0001_000000186_0001_1_13_H_._HHH_b1_06578_af2_0001_0000200019_0000001_0_0001_af2pred_0001 (protein)
chain: DEEREVELILRFLARAAGVKSVSVTTENGQVTVTVENVSPEAKELIEAAVRALRLRGLNVSFSTE
B7: il10ra_site1_normal_mot_HHH_b2_04275_000000272_0001_20_36_H_._HHH_b2_05523_af2_0001_0000200036_0000001_0 (protein)
chain: SSSSNEEIQEAYELLEKLSEAEHNGNEEEFEKIAEEIEELIRKLGNELLRAQLEFLERLLGSSSS
B8: il10ra_site1_normal_mot_HHH_b1_01827_000000263_0001_1_19_H_._HHH_b2_07433_0001_0000200007_0000001_0 (protein)
chain: SSSSSTEEFRRVRELIEEALQIEDEEEARRLLQEAVELAEEGGNLVLLWSAEYALRQLEESSSSS
B9: il10ra_site1_sap_27_mot_HHH_b2_02497_000000141_0001_1_20_H_._HHH_b2_04046_0001_0000400045_0000001_0_0001_af2pred_dldesign_0_af2pred (protein)
chain: SSSSSEKKKQWDLLVKTYRLIKEGKLEEAKKLLEELRAAAEKSGDPTLLHAVEVLEEELESSSSS
B10: il10ra_site1_normal_mot_2c1a291787c6f40772924d4e9068d803_0001_af2_000000222_0001_34_48_H_._HHH_b1_04001_0001_0000100002_0000001_0_af2pred_0001 (protein)
chain: SSSSSSSEEEELLQEAARISRTASPEEIEKLLRLIIRLYKEGDPELREELEELIEEIKSSSSSSS
B11: il10ra_site1_normal_mot_HHH_b2_04275_000000272_0001_20_36_H_._HHH_b1_07269_0001_0000400040_0000001_0 (protein)
chain: SSSSTEESEEVYELLRELAELLHENDEEEFEEVLKEVKRLAEEANNENLRVQVEFLERALSSSSS
B12: il10ra_site1_sap_18_mot_HHH_b2_02053_af2_000000006_0001_3_19_H_._HHH_b1_01435_af2_0001_0000300017_0000001_0_0001 (protein)
chain: SSSSSEYEEYIRRALRFLRWLVEVGDEESLKRMQKAIETMIERLNNEELQELLEEVKKELSSSSS
B13: il10ra_site1_normal_mot_HHH_b1_02062_000000185_0001_1_20_H_._HHH_b2_02425_0001_0000300022_0000001_1 (protein)
chain: SSSSSTREVYELSREAARLHSEGNPEEARKVLEEAEELAEELGNLNMLATLEAVLRLLNSSSSSS
B14: il10ra_site1_sap_26_mot_HHH_b2_06767_000000020_0001_41_56_H_._HHH_b1_04644_0001_0000100011_0000001_0_0001 (protein)
chain: SSSSSSEEVEELIKEAEELLEQGNEEEALRVLLRALRLAFRESNAELLRQIWELLHRLKSSSSSS
B15: il10ra_site1_normal_mot_HHH_b1_04771_000000013_0001_40_56_H_._HHH_b1_07359_0001_0000500027_0000001_0 (protein)
chain: SSSSSSTEVLELSLKAFRALLRGNPEEARELLEEAEELARELGDEQVLRVIEELLRANSSSSSSS
B16: il10ra_site1_sap_24_mot_HHH_b2_06602_000000226_0001_1_16_H_._HHH_b1_04775_af2_0001_0000500023_0000001_0_0001_af2pred_0001 (protein)
chain: SSSSSQRERSVEIMLRLAELARELGDPERVKLTLRSAKIAAEAARNEELKEEIREVEEELSSSSS
B17: il10ra_site1_sap_12_mot_HHH_b1_05699_af2_000000138_0001_41_55_H_._16d56542c9725820401ab7c11c235cbe_0001_af2_0001_0000100001_0000001_0_0001 (protein)
chain: SSSSTREVLELVARASALASRLGDREIEKRLFQLMIEAFVTGDPELERELEELAREFLEENSSSS
B18: il10ra_site1_sap_23_mot_HHH_b2_02354_af2_000000157_0001_40_56_H_._HHH_b1_02521_af2_0001_0000300012_0000001_0_0001_af2pred_0001 (protein)
chain: SSSSSEEKHRVLRLISKALKLIFEGNPEEAEEVIEEARELVEELGDEKLKEALEMVLHMLESSSS
B19: il10ra_site1_sap_30_mot_HHH_b1_02809_af2_000000277_0001_40_57_H_._HHH_b1_05733_0001_0000200016_0000002_0_0001 (protein)
chain: SSSSSEASRRIYELLRRIVELHHEGNPEEARELIEEAKELAEEAGDRVLLWVIEWLERLVNSSSS
B20: il10ra_site1_normal_mot_HHH_b1_01011_000000096_0001_1_19_H_._HHH_b2_02204_0001_0000300042_0000002_0_af2pred_0001 (protein)
chain: SSSSDEEELLRRTARFAEWAIKQGDPRAAERFIRALEDLAKKLNDEEAEELVEQLKELLNSSSSS
B21: il10ra_site1_normal_mot_HHH_b1_01693_000000146_0001_1_17_H_._HHH_b1_03590_0001_0000400015_0000001_0_af2pred_0001 (protein)
chain: SSSSSDEEEEEVEELLREAEHIEDEEELARVLAEAAVLARRARNPELIELVLKVIIRLLRSSSSS
B22: il10ra_site1_normal_mot_HHH_b1_02397_af2_000000085_0001_39_57_H_._ems_p1-15H-GBL-16H-GABBL-16H_0062_0001_0001_0002_af2_0001_0000300018_0000001_0 (protein)
chain: SSSSSDVAELAQEALRLAFRLGDEEALQAVHEIVRKLAEGLMDPEEAQELLEELIEELRSSSSSS
B23: il10ra_site1_normal_mot_49468d6c54d8157f7969f91124172a68_0001_af2_000000173_0001_37_51_H_._HHH_b2_05549_0001_0000200010_0000002_0 (protein)
chain: SSSSSDAEEVAVELLELLREGNEEEAERVVEEAREELEEKGDPQAVNLLEVSFRLLQRAESSSSS
B24: il10ra_site1_sap_19_mot_8756ee2cf497b5429c717dfc0c0bcfd6_0001_000000186_0001_1_13_H_._HHH_b1_00330_0001_0000100004_0000001_0_0001 (protein)
chain: SSSSSSDNEELIEKLEEAVEEGDREAVIRLAQEAIRIVLRNNDAEALRELWRLIQEHASSSSSSS

Target: il10ra, Q13651
Experiment: yeast display titration

Apparent Kd, inactive:
B1 no binding seen, B2 no binding seen, B3 no binding seen, B4 no binding seen, B5 no binding seen, B6 no binding seen, B7 no binding seen, B8 no binding seen, B9 no binding seen, B10 no binding seen, B11 no binding seen, B12 no binding seen, B13 no binding seen, B14 no binding seen, B15 no binding seen, B16 no binding seen, B17 no binding seen, B18 no binding seen, B19 no binding seen, B20 no binding seen, B21 no binding seen, B22 no binding seen, B23 no binding seen, B24 no binding seen
